Results are given in words; binding and its absence hold for the method and conditions named. In cells and extracts the contact can be indirect. Some binding calls cover weakened binding; strength is not graded here.

By UniProt entry, the sequences of proteins in these tests, tags left out.
UniProt Q3URK3: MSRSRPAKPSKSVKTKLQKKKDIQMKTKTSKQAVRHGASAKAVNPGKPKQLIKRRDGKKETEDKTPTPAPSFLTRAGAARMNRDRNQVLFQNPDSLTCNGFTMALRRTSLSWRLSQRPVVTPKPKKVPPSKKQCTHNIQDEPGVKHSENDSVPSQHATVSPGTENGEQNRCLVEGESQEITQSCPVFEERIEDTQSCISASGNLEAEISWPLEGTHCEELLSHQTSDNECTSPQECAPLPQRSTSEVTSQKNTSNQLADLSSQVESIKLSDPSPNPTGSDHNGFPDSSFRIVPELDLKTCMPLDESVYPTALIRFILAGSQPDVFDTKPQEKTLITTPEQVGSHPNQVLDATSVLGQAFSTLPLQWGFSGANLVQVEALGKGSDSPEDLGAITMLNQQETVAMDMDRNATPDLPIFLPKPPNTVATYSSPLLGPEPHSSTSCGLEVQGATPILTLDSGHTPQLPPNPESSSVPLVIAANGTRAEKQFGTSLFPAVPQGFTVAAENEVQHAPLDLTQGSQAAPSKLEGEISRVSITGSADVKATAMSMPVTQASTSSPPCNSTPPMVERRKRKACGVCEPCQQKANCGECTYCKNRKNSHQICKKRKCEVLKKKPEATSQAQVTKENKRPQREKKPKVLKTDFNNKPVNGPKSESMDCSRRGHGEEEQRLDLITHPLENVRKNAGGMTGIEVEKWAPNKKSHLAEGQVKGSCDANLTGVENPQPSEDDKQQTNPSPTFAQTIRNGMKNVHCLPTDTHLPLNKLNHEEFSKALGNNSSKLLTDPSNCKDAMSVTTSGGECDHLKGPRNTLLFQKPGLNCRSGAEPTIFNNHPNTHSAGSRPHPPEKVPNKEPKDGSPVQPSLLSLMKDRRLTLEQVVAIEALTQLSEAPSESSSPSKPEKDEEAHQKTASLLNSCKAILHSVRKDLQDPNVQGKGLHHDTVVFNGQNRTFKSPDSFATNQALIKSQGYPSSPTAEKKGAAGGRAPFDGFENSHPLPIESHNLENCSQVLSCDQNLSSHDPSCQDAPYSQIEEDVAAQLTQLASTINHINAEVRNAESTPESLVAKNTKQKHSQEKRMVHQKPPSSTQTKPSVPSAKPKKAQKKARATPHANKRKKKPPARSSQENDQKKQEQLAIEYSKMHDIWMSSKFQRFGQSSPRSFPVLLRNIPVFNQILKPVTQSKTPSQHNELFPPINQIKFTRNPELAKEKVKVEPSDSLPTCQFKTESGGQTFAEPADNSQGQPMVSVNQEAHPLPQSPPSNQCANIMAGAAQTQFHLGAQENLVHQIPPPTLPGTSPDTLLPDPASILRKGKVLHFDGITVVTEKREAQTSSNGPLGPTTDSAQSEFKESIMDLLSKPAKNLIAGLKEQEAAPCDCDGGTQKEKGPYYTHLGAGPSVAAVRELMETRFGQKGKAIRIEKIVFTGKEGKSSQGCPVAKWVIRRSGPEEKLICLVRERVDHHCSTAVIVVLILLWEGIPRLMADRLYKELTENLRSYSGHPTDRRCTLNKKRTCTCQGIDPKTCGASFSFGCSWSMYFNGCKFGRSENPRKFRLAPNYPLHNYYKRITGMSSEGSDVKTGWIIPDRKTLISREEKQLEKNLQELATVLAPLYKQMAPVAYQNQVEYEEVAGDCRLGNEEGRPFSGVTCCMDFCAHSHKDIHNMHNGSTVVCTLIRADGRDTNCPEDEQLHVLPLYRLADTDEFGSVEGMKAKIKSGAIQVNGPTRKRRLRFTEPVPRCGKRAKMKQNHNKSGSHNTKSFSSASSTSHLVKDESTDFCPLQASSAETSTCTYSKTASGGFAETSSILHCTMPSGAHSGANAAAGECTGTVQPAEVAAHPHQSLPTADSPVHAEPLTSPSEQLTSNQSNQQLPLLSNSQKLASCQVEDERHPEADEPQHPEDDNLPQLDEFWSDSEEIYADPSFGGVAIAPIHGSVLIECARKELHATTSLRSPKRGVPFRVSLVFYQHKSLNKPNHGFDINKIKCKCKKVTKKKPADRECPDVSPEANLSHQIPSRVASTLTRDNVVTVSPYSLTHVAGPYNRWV

Assay [1] concerns the target T1, NONO (mouse (endogenous in mESCs)) (UniProt Q99K48).
T1 sequence: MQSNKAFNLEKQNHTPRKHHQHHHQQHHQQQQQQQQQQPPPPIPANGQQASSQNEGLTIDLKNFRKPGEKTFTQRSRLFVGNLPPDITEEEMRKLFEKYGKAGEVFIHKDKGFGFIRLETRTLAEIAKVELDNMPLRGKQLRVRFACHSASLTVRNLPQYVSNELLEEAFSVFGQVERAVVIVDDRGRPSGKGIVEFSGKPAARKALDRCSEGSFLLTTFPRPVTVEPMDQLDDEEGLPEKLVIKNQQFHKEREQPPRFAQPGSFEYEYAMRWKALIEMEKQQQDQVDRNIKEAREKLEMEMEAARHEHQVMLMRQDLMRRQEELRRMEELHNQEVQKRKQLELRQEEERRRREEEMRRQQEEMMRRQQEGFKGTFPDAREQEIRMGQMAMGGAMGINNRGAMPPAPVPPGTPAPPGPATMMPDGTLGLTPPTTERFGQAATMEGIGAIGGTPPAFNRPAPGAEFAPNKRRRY
The assay is described as follows: co-IP; lightly sonicated mESC nuclear extracts incubated with 2 ug NONO antibody, TET1 antibody or control IgG and protein A/G agarose beads at 4 C overnight; washed five times in 50 mM Tris-HCl pH 7.9, 150 mM KCl, 5 mM MgCl2, 0.2 mM EDTA, 5% glycerol, 0.1% NP-40; Western blot. (In general: In western blotting, separated proteins are transferred to a membrane and probed.)

For assay [2], the target named is Ten-Eleven Translocation 1 (TET1) (mouse (endogenous in mESCs)) (UniProt Q3URK3). The description is as above.

Turning to “Ten-Eleven Translocation 1 (TET1) (from UniProt Q3URK3 1-2039)”, the binding result in assay [1] is “binds”.

B1: NONO (protein, UniProt Q99K48 1-473)
chain: T1 sequence
In the case of B1, the binding entry in assay [2] is reported as “binds”.

Values taken from article PMC7229820.
